According to PMC11904033, “Lanatoside C activates the E3 ligase STUB1 to inhibit FOXP3 transcriptional activity and promote antitumor immunity” (EMBO Molecular Medicine, 2025):
These are yes or no findings as the source states them, for the method shown. Binding seen in cells or lysates may run through a third protein. Some entries that bind do so weakly or less than the wild type.

Sequences of proteins named here, by UniProt entry; tags and fusion partners are left off. Residues count along the entry.
UniProt Q01196: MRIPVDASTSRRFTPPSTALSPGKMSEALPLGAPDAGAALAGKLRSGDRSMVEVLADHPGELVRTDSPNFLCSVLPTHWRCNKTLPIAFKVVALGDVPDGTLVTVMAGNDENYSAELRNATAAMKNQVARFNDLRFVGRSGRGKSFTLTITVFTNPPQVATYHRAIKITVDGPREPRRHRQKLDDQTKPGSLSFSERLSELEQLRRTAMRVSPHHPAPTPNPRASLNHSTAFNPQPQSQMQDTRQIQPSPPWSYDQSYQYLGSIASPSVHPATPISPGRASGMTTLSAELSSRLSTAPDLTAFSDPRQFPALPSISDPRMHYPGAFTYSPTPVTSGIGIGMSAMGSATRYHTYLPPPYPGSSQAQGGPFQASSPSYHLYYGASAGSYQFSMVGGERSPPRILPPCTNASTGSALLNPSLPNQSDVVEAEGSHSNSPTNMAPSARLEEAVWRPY
UniProt Q9BZS1, residues 1-417: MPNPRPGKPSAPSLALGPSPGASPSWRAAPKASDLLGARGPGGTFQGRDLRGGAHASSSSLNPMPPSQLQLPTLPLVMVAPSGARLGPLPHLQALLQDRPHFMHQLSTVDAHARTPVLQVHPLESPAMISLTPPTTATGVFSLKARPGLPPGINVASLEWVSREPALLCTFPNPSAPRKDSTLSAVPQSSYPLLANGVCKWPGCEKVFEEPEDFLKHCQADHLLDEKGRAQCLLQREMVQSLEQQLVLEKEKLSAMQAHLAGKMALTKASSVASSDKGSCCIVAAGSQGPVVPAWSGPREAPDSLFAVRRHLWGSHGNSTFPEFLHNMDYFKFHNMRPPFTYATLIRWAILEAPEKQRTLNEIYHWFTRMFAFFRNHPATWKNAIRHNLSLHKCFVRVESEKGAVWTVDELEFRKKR
UniProt Q9UNE7: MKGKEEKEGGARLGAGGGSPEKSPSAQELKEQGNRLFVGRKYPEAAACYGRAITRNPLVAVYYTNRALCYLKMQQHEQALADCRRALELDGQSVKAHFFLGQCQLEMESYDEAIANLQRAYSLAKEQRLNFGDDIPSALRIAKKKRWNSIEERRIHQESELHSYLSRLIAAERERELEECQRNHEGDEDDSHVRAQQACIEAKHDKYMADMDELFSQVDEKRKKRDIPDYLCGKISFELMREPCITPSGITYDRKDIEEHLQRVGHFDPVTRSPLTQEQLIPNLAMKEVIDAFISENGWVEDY
UniProt P26842, residues 20-260: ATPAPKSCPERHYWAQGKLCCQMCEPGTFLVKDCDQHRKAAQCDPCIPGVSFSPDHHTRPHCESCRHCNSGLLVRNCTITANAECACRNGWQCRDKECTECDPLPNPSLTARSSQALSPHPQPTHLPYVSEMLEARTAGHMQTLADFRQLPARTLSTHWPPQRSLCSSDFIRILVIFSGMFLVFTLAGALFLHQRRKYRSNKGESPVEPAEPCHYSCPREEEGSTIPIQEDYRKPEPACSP

Key:
[1] = target: RUNX1 (expressed in 293T for the co-IP with STUB1) (UniProt Q01196); assay: co-IP; lysate of 293T cells co-transfected with the indicated plasmids for around 36 h, treated with DMSO or Lac; RUNX1 precipitated, STUB1 detected by immunoblot
[2] = target: Nlu-FOXP3-Flag (FOXP3 fused to the N-terminal half of firefly luciferase, 3xFlag) (UniProt Q9BZS1); assay: split reporter; bimolecular luciferase complementation (halves of firefly luciferase) in 293T cells that co-express the two fusions; Bright-Glo Luciferase Assay System, 96-well plate
[3] = target: Nlu-FOXP3-Flag (FOXP3 fused to the N-terminal half of firefly luciferase, 3xFlag) (UniProt Q9BZS1); assay: co-IP; lysate of 293T-NF + RC cells treated with DMSO or Lac; FOXP3 precipitated, RUNX1 detected by immunoblot

Row | binding [1] | binding [2] | binding [3] | Substance
1 | binds | – | – | STUB1 (expressed in 293T for the co-IP with RUNX1) (from UniProt Q9UNE7 1-303)
2 | – | no binding | – | CD27-Clu-Myc (CD27 fused to the C-terminal half of firefly luciferase) (from UniProt P26842 20-260)
3 | – | binds | binds | RUNX1-Clu-Myc (RUNX1 fused to the C-terminal half of firefly luciferase, Myc) (from UniProt Q01196 1-453)
